PubChem BioAssay AID256 (DTP/NCI, 2004)
The list shows only some results of the screen, not a fair sample: it gathers tests that were run many times, whatever their T/C, doses with no T/C, and many T/C values between a quarter and a half above the control. Further doses and runs are listed elsewhere. T/C: endpoint of the treated group in % of that of the vehicle group. Some doses have a count of surviving animals in place of a T/C: the source holds a T/C of zero for them, seemingly a mark for toxic or unscored doses. Some doses without a T/C left all or most animals alive at the check, yet need not have been tolerated: the source hardly ever lists a survival T/C far under the control, and the zero likely stands for such cases as well. Survivors were counted at the toxicity check, usually on the fifth day, unless a day is given; later deaths do not show. Schedules are NCI's codes, read here as Q, the interval in days (D) or hours (H), X, the number of doses. Some entries hold several experiments; the values are given in rising order. Some molecules as drawn cover several salts, stereoisomers or complexes of the source; a dose is that of the sample tested. For survival time, the PubChem record calls one and a half times the control and up active, and a quarter to a half above the control has no call in these data; cut-offs in other NCI protocols can differ. Some T/C values are followed by the survivors on the day toxicity was checked, most often the fifth; where none is given, no animal had died by that day.

System: CD2F1 mice, L1210 leukemia ip, survival T/C
Assay: NCI In Vivo Anticancer Drug Screen. Data for tumor model L1210 Leukemia (intraperitoneal) in CD2F1 (CDF1) mice
Conditions: higher T/C = longer survival
Procedure, shortened: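 Compound-dosed mice with transplantable tumor versus matched vehicle controls; endpoint ratio T/C reported.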

SMILES: CCN(CC)C(=O)CSC#N
- survivor count (T/C endpoint: mean survival time, dose: 50.0 mg/kg/injection, schedule: Q01DX001 (ip), vehicle: Klucel (hydroxypropylcellulose) (HPC)): 0 of 3
- survivor count (T/C endpoint: mean survival time, dose: 100.0 mg/kg/injection, schedule: Q01DX001 (ip), vehicle: Klucel (hydroxypropylcellulose) (HPC)): 0 of 3
- survivor count (T/C endpoint: mean survival time, dose: 100.0 mg/kg/injection, schedule: Q04DX002 (ip), vehicle: other): 0 of 3
- survivor count (T/C endpoint: mean survival time, dose: 200.0 mg/kg/injection, schedule: Q01DX001 (ip), vehicle: Klucel (hydroxypropylcellulose) (HPC)): 0 of 3
- survivor count (T/C endpoint: mean survival time, dose: 200.0 mg/kg/injection, schedule: Q04DX002 (ip), vehicle: other): 0 of 3
- survivor count (T/C endpoint: mean survival time, dose: 400.0 mg/kg/injection, schedule: Q01DX001 (ip), vehicle: Klucel (hydroxypropylcellulose) (HPC)): 0 of 3
- survivor count (T/C endpoint: mean survival time, dose: 400.0 mg/kg/injection, schedule: Q04DX002 (ip), vehicle: other): 0 of 3

SMILES: S=C([S-])N1CCCCC1.S=C([S-])N1CCCCC1.[Zn]
- survivor count (T/C endpoint: mean survival time, dose: 75.0 mg/kg/injection, schedule: Q01DX009 (ip), vehicle: saline): 1 of 6

SMILES: CC[C@H]1CN2CCc3cc(OC)c(OC)cc3[C@@H]2C[C@@H]1C[C@H]1NCCc2cc(O)c(OC)cc21
- T/C (T/C endpoint: mean survival time, dose: 4.0 mg/kg/injection, schedule: Q01DX015 (ip), vehicle: saline): 128 % of control

SMILES: COc1ccc(C(=O)c2cccc3c2-c2ccccc2C3(c2ccc(OC)c(C)c2)c2ccc(OC)c(C)c2)cc1C
- survivor count (T/C endpoint: mean survival time, dose: 20.0 mg/kg/injection, schedule: Q01DX001 (ip), vehicle: other): 6 of 6

SMILES: COc1cccc(C(=O)NC[n+]2ccccc2)c1
- survivor count (T/C endpoint: mean survival time, dose: 200.0 mg/kg/injection, schedule: Q04DX003 (ip), vehicle: saline): 0 of 6
- survivor count (T/C endpoint: mean survival time, dose: 400.0 mg/kg/injection, schedule: Q04DX003 (ip), vehicle: saline): 0 of 6

SMILES: Cc1ccc2[nH]c(=O)[nH]c(=O)c2n1
- survivor count (T/C endpoint: mean survival time, dose: 300.0 mg/kg/injection, schedule: Q01DX001 (ip), vehicle: other): 1 of 6

SMILES: CNC(=S)NCc1ccc(C(=O)NC(C)C)cc1
- survivor count (T/C endpoint: mean survival time, dose: 800.0 mg/kg/injection, schedule: Q01DX009 (ip), vehicle: other): 1 of 6

SMILES: CC(C)N1CC(COc2cccc3ccccc23)OP1(=O)N(CCCl)CCCl (centres undefined)
- T/C (T/C endpoint: mean survival time, dose: 500.0 mg/kg/injection, schedule: Q01DX001 (ip), vehicle: distilled water + Tween-80): 130 % of control [5 of 6 alive]

SMILES: CCOC(=O)c1ccc(N/C(C)=C/C(=O)OC)cc1
- survivor count (T/C endpoint: mean survival time, dose: 300.0 mg/kg/injection, schedule: Q04DX003 (ip), vehicle: saline): 3 of 6

SMILES: N[C@H](C(=O)O)[C@@H]1CC(Cl)=NO1
- T/C (T/C endpoint: mean survival time, dose: 1.5 mg/kg/injection, schedule: Q01DX009 (ip), vehicle: saline): 146 % of control
- T/C (T/C endpoint: mean survival time, dose: 1.56 mg/kg/injection, schedule: Q01DX009 (ip), vehicle: saline): 137 and 145 % of control
- T/C (T/C endpoint: mean survival time, dose: 3.12 mg/kg/injection, schedule: Q01DX009 (ip), vehicle: saline): 145 % of control
- T/C (T/C endpoint: mean survival time, dose: 4.0 mg/kg/injection, schedule: Q01DX009 (ip), vehicle: saline): 138 % of control
- T/C (T/C endpoint: mean survival time, dose: 50.0 mg/kg/injection, schedule: Q04DX003 (ip), vehicle: water): 146 % of control
- survivor count (T/C endpoint: mean survival time, dose: 200.0 mg/kg/injection, schedule: Q04DX003 (ip), vehicle: water): 3 of 3
- T/C (T/C endpoint: mean survival time, dose: 400.0 mg/kg/injection, schedule: Q04DX003 (ip), vehicle: water): 142 % of control
- T/C (T/C endpoint: median survival time, dose: 0.5 mg/kg/injection, schedule: Q01DX009 (ip), vehicle: saline): 137 % of control
- T/C (T/C endpoint: median survival time, dose: 1.0 mg/kg/injection, schedule: Q01DX009 (ip), vehicle: saline): 125 % of control
- T/C (T/C endpoint: median survival time, dose: 1.5 mg/kg/injection, schedule: Q01DX009 (ip), vehicle: saline): 126 and 141 % of control
- T/C (T/C endpoint: median survival time, dose: 2.0 mg/kg/injection, schedule: Q01DX009 (ip), vehicle: saline): 128 % of control
- T/C (T/C endpoint: median survival time, dose: 3.0 mg/kg/injection, schedule: Q01DX009 (ip), vehicle: saline): 131 and 137 % of control [8 of 9 alive]
- T/C (T/C endpoint: median survival time, dose: 4.0 mg/kg/injection, schedule: Q01DX009 (ip), vehicle: saline): 149 % of control
- T/C (T/C endpoint: median survival time, dose: 6.0 mg/kg/injection, schedule: Q01DX009 (ip), vehicle: saline): 145 % of control
- survivor count (T/C endpoint: median survival time, dose: 16.0 mg/kg/injection, schedule: Q01DX009 (ip), vehicle: saline): 10 of 10

SMILES: c1ccc(-c2n[nH]c3ccccc23)cc1
- survivor count (T/C endpoint: median survival time, dose: 400.0 mg/kg/injection, schedule: Q04DX002 (ip), vehicle: saline with Tween-80): 0 of 3

SMILES: O=C1NC(=O)C2C3CCC(O3)C12 (centres undefined)
- survivor count (T/C endpoint: mean survival time, dose: 100.0 mg/kg/injection, schedule: Q04DX002 (ip), vehicle: saline with Tween-80): 3 of 3
- survivor count (T/C endpoint: mean survival time, dose: 100.0 mg/kg/injection, schedule: Q04DX002 (ip), vehicle: saline): 3 of 3
- survivor count (T/C endpoint: mean survival time, dose: 200.0 mg/kg/injection, schedule: Q04DX002 (ip), vehicle: saline): 2 of 3
- survivor count (T/C endpoint: mean survival time, dose: 400.0 mg/kg/injection, schedule: Q04DX002 (ip), vehicle: saline with Tween-80): 0 of 3
- survivor count (T/C endpoint: mean survival time, dose: 400.0 mg/kg/injection, schedule: Q04DX002 (ip), vehicle: saline): 0 of 3

SMILES: O/N=C/c1ccccc1O.O/N=C/c1ccccc1O.[Cu]
- survivor count (T/C endpoint: mean survival time, dose: 50.0 mg/kg/injection, schedule: Q01DX009 (ip), vehicle: saline with Tween-80): 5 of 6 and 10 of 10

SMILES: Cc1ccc(S(=O)(=O)N/N=C(\C(=O)O)c2ccccc2)cc1
- survivor count (T/C endpoint: mean survival time, dose: 400.0 mg/kg/injection, schedule: Q01DX009 (ip), vehicle: Klucel (hydroxypropylcellulose) (HPC)): 6 of 6

SMILES: C[n+]1c[se]cn1
- survivor count (T/C endpoint: mean survival time, dose: 75.0 mg/kg/injection, schedule: Q01DX001 (ip), vehicle: saline): 0 of 6
- survivor count (T/C endpoint: mean survival time, dose: 150.0 mg/kg/injection, schedule: Q01DX001 (ip), vehicle: saline): 0 of 6
- survivor count (T/C endpoint: mean survival time, dose: 300.0 mg/kg/injection, schedule: Q01DX001 (ip), vehicle: saline): 0 of 6

SMILES: O=C(N/N=C/c1ccc(O)cc1O)c1cccnc1
- survivor count (T/C endpoint: mean survival time, dose: 200.0 mg/kg/injection, schedule: Q01DX009 (ip), vehicle: olive oil, sesame oil, peanut oil): 3 of 6

SMILES: CCCCCCCC(=O)OCC(=O)[C@]1(O)Cc2c(O)c3c(c(O)c2[C@@H](OC2CC(N)C(O)C(C)O2)C1)C(=O)c1c(OC)cccc1C3=O (some centres undefined)
- T/C (T/C endpoint: mean survival time, dose: 0.25 mg/kg/injection, schedule: Q01DX009 (ip), vehicle: saline with Tween-80): 130 % of control
- T/C (T/C endpoint: mean survival time, dose: 0.5 mg/kg/injection, schedule: Q01DX009 (ip), vehicle: saline sonified): 127 % of control
- T/C (T/C endpoint: mean survival time, dose: 0.5 mg/kg/injection, schedule: Q01DX009 (ip), vehicle: saline with Tween-80): 138 % of control
- T/C (T/C endpoint: mean survival time, dose: 0.5 mg/kg/injection, schedule: Q04DX003 (ip), vehicle: saline with Tween-80): 137 % of control
- T/C (T/C endpoint: mean survival time, dose: 1.0 mg/kg/injection, schedule: Q01DX009 (ip), vehicle: saline sonified): 138 % of control
- T/C (T/C endpoint: mean survival time, dose: 1.0 mg/kg/injection, schedule: Q01DX009 (ip), vehicle: saline with Tween-80): 138 % of control
- T/C (T/C endpoint: mean survival time, dose: 1.0 mg/kg/injection, schedule: Q01DX009 (ip), vehicle: water): 125 % of control
- T/C (T/C endpoint: mean survival time, dose: 1.0 mg/kg/injection, schedule: Q04DX003 (ip), vehicle: saline with Tween-80): 132 % of control [5 of 6 alive]
- T/C (T/C endpoint: mean survival time, dose: 1.25 mg/kg/injection, schedule: Q04DX003 (ip), vehicle: saline with Tween-80): 125 % of control
- T/C (T/C endpoint: mean survival time, dose: 1.4 mg/kg/injection, schedule: Q04DX003 (ip), vehicle: saline with Tween-80): 125 % of control
- T/C (T/C endpoint: mean survival time, dose: 2.0 mg/kg/injection, schedule: Q04DX003 (ip), vehicle: saline with Tween-80): 140 and 144 % of control [5 of 6 alive]
- T/C (T/C endpoint: mean survival time, dose: 2.5 mg/kg/injection, schedule: Q01DX001 (ip), vehicle: saline with Tween-80): 130 % of control
- T/C (T/C endpoint: mean survival time, dose: 2.5 mg/kg/injection, schedule: Q04DX003 (ip), vehicle: saline with Tween-80): 134 % of control
- T/C (T/C endpoint: mean survival time, dose: 4.0 mg/kg/injection, schedule: Q01DX009 (ip), vehicle: saline with Tween-80): 134 % of control
- T/C (T/C endpoint: mean survival time, dose: 4.0 mg/kg/injection, schedule: Q01DX009 (ip), vehicle: water): 127 % of control
- T/C (T/C endpoint: mean survival time, dose: 5.0 mg/kg/injection, schedule: Q01DX001 (ip), vehicle: saline with Tween-80): 136 % of control
- T/C (T/C endpoint: mean survival time, dose: 5.0 mg/kg/injection, schedule: Q04DX003 (ip), vehicle: saline with Tween-80): 141 % of control
- survivor count (T/C endpoint: mean survival time, dose: 8.0 mg/kg/injection, schedule: Q01DX009 (ip), vehicle: water): 6 of 6
- T/C (T/C endpoint: mean survival time, dose: 10.0 mg/kg/injection, schedule: Q01DX001 (ip), vehicle: saline with Tween-80): 137 % of control
- T/C (T/C endpoint: mean survival time, dose: 10.0 mg/kg/injection, schedule: Q04DX003 (ip), vehicle: saline with Tween-80): 141 % of control
- survivor count (T/C endpoint: mean survival time, dose: 40.0 mg/kg/injection, schedule: Q01DX001 (ip), vehicle: saline with Tween-80): 1 of 10
